According to publication PMC9793311:
These are yes or no findings as the source states them, for the method shown. Tags and fused reporters may be left off the sequences shown.

By UniProt entry, the sequences of proteins in these tests, tags left out. Where a name states a change or a piece, a line headed by the entry shows the natural chain unless it says otherwise.
UniProt P40793: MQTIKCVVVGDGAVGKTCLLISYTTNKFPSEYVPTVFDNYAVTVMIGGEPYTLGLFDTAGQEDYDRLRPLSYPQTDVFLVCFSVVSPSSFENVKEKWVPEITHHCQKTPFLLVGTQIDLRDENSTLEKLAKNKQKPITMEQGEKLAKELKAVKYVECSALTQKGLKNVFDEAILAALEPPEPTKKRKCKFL

Molecular target: T1, MBP-Par-3 PDZ1-APM (Drosophila melanogaster) (UniProt O96782)
T1 sequence: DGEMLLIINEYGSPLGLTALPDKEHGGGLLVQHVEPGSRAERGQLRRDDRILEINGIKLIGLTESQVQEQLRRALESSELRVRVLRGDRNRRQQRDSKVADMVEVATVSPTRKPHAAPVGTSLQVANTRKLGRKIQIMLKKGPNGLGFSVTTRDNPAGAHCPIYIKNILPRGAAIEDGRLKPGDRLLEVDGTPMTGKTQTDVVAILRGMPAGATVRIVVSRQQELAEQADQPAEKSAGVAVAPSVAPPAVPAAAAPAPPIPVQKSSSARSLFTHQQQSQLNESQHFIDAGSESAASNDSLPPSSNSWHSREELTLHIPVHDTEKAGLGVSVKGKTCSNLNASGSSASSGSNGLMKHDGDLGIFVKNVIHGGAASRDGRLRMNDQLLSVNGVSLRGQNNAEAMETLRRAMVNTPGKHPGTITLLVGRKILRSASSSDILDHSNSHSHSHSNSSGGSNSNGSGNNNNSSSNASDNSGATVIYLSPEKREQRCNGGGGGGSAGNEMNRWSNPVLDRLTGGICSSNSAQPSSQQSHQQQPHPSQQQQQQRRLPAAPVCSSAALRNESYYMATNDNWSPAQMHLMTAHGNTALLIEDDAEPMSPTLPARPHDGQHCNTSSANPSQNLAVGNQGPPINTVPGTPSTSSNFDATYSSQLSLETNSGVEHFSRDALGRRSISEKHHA
Assay: pull-down; MBP-Par-3 PDZ1-APM on amylose resin (from bacterial lysate, washed 4x); soluble purified proteins added, 10 min at room temperature; 20 mM Hepes pH 7.5, 100 mM NaCl, 5 mM MgCl2, 0.5% Tween-20, 1 mM DTT, 200 uM ATP; Coomassie-stained gel; both purified

binding: no binding
Substance: His-Cdc42^Q61L (from UniProt P40793 1-191)
